Experimental data: article PMC7090148 (2020)
Results are given in words; binding and its absence hold for the method and conditions named. In cells and extracts the contact can be indirect. Some results given as binding are weak or reduced against the parent protein; the word gives no strength. Sequences can lack the tags named with a protein.

Experiments:
Mouse OFD1 S437R (mouse) = target: T1, Mouse OFD1 S437R (mouse) (UniProt Q80Z25); test: co-IP; OFD1 mutants co-expressed with TRAPPC8 or TRAPPC12; IP efficiency as ratio of immunoprecipitated TRAPPC8/OFD1 or TRAPPC12/OFD1; cell line and IP antibody not stated for this panel
T1 sequence: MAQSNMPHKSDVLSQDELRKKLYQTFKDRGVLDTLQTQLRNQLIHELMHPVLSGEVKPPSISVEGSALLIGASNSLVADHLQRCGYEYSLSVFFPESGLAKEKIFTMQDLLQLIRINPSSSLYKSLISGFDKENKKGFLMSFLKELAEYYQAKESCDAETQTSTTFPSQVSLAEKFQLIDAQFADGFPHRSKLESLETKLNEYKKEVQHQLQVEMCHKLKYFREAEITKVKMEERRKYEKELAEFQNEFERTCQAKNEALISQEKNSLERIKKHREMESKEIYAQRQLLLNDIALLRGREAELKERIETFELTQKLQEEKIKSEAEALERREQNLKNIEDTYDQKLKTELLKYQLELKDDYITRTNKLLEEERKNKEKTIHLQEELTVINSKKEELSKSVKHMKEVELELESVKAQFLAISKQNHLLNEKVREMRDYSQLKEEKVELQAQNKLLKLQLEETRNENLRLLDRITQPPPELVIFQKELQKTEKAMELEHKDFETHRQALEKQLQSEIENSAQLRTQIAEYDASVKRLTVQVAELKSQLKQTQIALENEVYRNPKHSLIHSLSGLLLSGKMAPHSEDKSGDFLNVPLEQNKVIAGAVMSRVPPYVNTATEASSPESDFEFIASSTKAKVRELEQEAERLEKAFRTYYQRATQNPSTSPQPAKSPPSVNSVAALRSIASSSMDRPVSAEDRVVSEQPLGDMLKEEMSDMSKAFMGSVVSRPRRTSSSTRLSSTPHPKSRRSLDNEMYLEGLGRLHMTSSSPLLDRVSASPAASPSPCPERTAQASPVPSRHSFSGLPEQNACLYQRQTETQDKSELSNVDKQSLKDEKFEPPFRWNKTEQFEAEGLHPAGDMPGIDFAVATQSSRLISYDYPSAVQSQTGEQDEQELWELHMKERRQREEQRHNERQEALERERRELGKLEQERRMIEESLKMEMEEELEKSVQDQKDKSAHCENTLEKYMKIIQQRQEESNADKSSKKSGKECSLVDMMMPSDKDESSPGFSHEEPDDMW

[1] = target: T2, Myc-tagged OFD1 (oral-facial-digital syndrome 1), full length (human) (UniProt O75665); test: co-IP; NTAP-TRAPPC8 and NTAP-TRAPPC12 co-expressed together with Myc-OFD1 to allow competition of binding; Myc-OFD1 pulled down; immunoblot
T2 sequence: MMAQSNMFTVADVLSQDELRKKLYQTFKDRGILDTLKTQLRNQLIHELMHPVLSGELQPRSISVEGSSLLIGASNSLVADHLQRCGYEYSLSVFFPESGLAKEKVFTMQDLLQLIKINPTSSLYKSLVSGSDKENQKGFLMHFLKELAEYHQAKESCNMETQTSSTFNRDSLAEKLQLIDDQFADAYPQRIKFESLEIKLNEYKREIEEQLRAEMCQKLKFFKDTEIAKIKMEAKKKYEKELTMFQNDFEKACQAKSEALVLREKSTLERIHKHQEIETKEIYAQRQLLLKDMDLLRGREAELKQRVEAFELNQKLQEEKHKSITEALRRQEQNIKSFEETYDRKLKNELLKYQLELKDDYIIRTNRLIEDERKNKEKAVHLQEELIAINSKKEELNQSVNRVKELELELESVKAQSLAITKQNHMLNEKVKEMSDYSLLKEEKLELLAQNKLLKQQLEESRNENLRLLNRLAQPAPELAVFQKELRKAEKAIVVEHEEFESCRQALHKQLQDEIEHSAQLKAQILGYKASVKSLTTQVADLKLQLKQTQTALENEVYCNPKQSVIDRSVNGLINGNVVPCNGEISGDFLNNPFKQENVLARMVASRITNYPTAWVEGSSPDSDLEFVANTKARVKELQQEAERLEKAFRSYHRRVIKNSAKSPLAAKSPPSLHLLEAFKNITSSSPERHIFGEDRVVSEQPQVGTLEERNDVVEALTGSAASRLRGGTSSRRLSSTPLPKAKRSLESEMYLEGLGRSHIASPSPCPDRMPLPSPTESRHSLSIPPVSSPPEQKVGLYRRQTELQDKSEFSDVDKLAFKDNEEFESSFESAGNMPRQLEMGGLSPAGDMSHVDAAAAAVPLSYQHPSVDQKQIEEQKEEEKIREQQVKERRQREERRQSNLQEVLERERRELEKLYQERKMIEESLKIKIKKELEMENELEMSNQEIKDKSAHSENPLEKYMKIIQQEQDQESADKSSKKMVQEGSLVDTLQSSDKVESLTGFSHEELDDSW

B1: NTAP-tagged TRAPPC12 (protein, UniProt Q8K2L8 1-797)
chain: METAKDGEQSPSEASPSAQAGPENIPEPMSREEESQPLYHEETIDLGGDEFASEENEPTSEGSHNFGDKLNEHMMESVLISDSPNNSEGDVGDLGCLQDVGEPPRGATDHRLPSSTDKEVVDTLSNGSETDGDDTPRDISDMTPDSRASLKEDSTQEDVTSMPALENAATEEVGPKDSLAPREEQTSEVSSNQSSSKDEPLPVCTIFSQATATPSQPHLFLQDGFESQMVKSPSFSSTSETSAKTPPPMVQPSPSLSTFFGDTMSSNSLASDFFDSFTTSTFISVSNPNAGSPVPEKLSSLTAPVGEKSPDSTSPSYSTRMDRSESGVSRAPLDVPESPKPFSQIQAVFAGSDDPFATALSMSEMDRRNDAWLPSQATREVLMSVATQQYGTVFIDKENLTMPGLKFDNIQGDAVKDLMLRFLGEKAAAKRQVLNASSVEQSFVGLKQLISCRNWRAAVDLCGRLLTAHGQGYGKNGLPTSHTTDSLQLWFVRLALLVKLGLFQNAEMEFEPFGNLDQPDLYYEYYPHVYPGRRGSMVPFSMRILHAELQQYLGNPQESLDRLHRVKTVCSKILANLEQGLAEDGGLSSVTQESRQASVQLWRSRLGRVLYSMANCLLLMKDYVLAVDAYLTVIKYYPEQEPQLLSGIGRILLQIGDIKTAEKYFQDVEKVTQKLDGLQGKIMVLMNRAFLYLGQNNFAEAHKFFTEILRMDPTNAVANNNAAVCLLYLGKLKDSLRQLEAMVQQDPRHYLHESVLFNLTTMYELESSRSMQKKQSLLEAVASKEGDSFNTQCLKLA
Mouse OFD1 S437R (mouse)
  binding: binds
[1]
  binding: binds
